According to PubChem BioAssay AID1347076 (National Center for Advancing Translational Sciences (NCATS), 2019):
Where “and” joins values, the source holds several entries; their conditions need not be identical. Identical values can stand only once. Out of some 400,000 compounds screened, about 13,000 (3.2%) were called active. Inconclusive means that the source gave no clear call. Such entries were picked first, then a sample of the others. The call rests on the fitted dose curve; in most records, active means well fitted cell-killing curve with a large enough effect; inconclusive means small, poorly fitted or top-dose-only effect, or effect the other way; inactive means flat fitted curve, though single readings scatter. Potencies beside an inconclusive call are fits to weak or partial responses and may not hold up.

test: qHTS assay for MDR1-selective chemotherapeutics: Primary screen using the drug-selected MDR subline cells KB-V1; details: KB-V1 MDR cells viability, CellTiter-Glo, 72 h; activity change, negative = cytotoxicity: at 46.1 µM (top of the series); further: nearly all actives have a fitted effect of over 60% in size
Summary of the method: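 In this primary screen, KB-V1 cells overexpressing P-gp are incubated with library compounds (lowest to highest concentration) for 72 h at 37 degrees C before a luminescent ATP viability read.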
On the % scale 0 is the no-effect control and ±100 the full control effect; potency means the concentration at half of the fitted maximal effect.

Structure (SMILES)	Potency	activity change, negative = cytotoxicity
CC(=NCCC1=CCCCC1)c1c(O)[nH]c(=O)[nH]c1=O	inconclusive: 7.31 µM [cytotoxic, partial curve, poor fit]	
C[C@]12C[C@H](O)[C@@H](O)CC1=CCC1C2CC[C@@]2(C)C1CC[C@@H]2O (some centres not stated)	inconclusive: 25.9 µM [cytotoxic, single point]	
CC(=O)OC1CC[C@]2(C#N)[C@H]3CC[C@]4(C)[C@H](C5C=CC(=O)O5)CCC4(O)C3CCC2(O)C1 (some centres not stated)	inconclusive: 29.1 µM [cytotoxic, partial curve, poor fit]	
CC(C)n1c(=O)c(C=Nc2ccc(S(N)(=O)=O)cc2)c(O)n(Cc2ccco2)c1=O	inactive	
CCN(CC)c1ccc(N=Cc2c(O)n(Cc3ccccc3)c(=O)[nH]c2=O)cc1	inconclusive: 5.8 µM [cytotoxic, partial curve, poor fit]	
CNC(=O)Oc1ccc(-c2cn3cc(C)ccc3n2)cc1	active: 18.4 µM	
O=C1NC(=O)C(=CCc2ccccc2)C(=O)N1	inconclusive: 0.651 µM [rising, full curve]	
CCCCn1c(N)c(C(=O)NCc2cccs2)c2nc3ccccc3nc21	active: 13 µM	
COc1ccc2c(c1)[nH]c1c(C)nccc12	active: 23.1 µM and inconclusive: 29.1 µM [cytotoxic, single point]	
CC(C)c1oc(=O)cc2c1[C@@H](O)[C@H]1OC(=O)[C@@]3(C)C[C@@H](O)[C@@H](O)[C@@]2(C)C13 (some centres not stated)	inactive	
CC(=O)OC1N=C(c2ccccc2Cl)c2cc(Br)ccc2NC1=O (configuration not stated)	inconclusive: 16.4 µM [rising, single point]	
CCN1CCC2(CC1)NC(CO)(CO)CO2	inconclusive: 29.1 µM [rising, single point]	
O=C1NCN(c2ccccc2)C12CCN(C(c1ccccc1)c1nnnn1Cc1ccccc1)CC2 (configuration not stated)	inconclusive: 29.1 µM [cytotoxic, single point]	
CCOCC1(CCc2ccccc2)C(=O)NC(=S)NC1=O	inactive	
O=C(NC(=S)N1C[C@H]2C[C@H](C1)c1cccc(=O)n1C2)c1ccc(Cl)cc1	inconclusive: 9.2 µM [rising, single point]	
CCN1c2nc3ccccn3c(=O)c2CC2(C(=O)N(C)C(=O)N(C)C2=O)C1C (configuration not stated)	active: 16.4 µM	
O=C(c1ccc(C(F)(F)F)cc1)C1CCCN(Cc2ccncc2)C1 (configuration not stated)	active: 7.31 µM	
O=C1NC(=O)C(=Cc2ccccc2OCCOc2ccc([N+](=O)[O-])cc2)C(=O)N1	inactive	
COc1ccc2c3c1OC1C(=O)CC[C@@]4(O)[C@@H](C2)N(C)CC[C@]314 (some centres not stated)	inactive	
CCc1ccc(-n2nc(C)c3c2NC(=O)CSC3c2ccc(C(=O)OC)cc2)cc1 (configuration not stated)	inactive	
COc1ccccc1-c1nn2c(=O)cc(CN3CCN(C(=O)COc4ccccc4Cl)CC3)nc2s1	inactive	
CC(C)c1ccc(N2C(=O)CC(=O)NC2=O)cc1	inconclusive: 0.731 µM [rising, full curve, poor fit]	

Structure (SMILES)	Potency	activity change, negative = cytotoxicity
O=C(c1cc2nc(-c3ccccc3)cc(-c3ccccc3)n2n1)N1CCC2(CC1)OCCO2	active: 25.9 µM	
CCOP(=O)(CN(CC)CCNP(=O)(OCC)OCC)OCC	inconclusive: 11.6 µM [rising, partial curve, poor fit]	
O=C(c1cc(S(=O)(=O)N2CCCCC2)ccc1F)N1CCC2(CC1)OCCO2	inactive	
CCOP(=O)(OCC)C(NC(=O)CN1C(=O)c2ccccc2S1(=O)=O)C(Cl)(Cl)Cl (configuration not stated)	inconclusive: 23.1 µM [rising, single point]	
N#Cc1ccc(NC(=O)CN2CCN(C(=O)c3cccs3)CC2)cc1Cl	inconclusive: 18.4 µM [cytotoxic, single point]	
O=C(C1CC(c2ccc(Cl)c(Cl)c2)=NO1)N1CCC2(CC1)OCCO2 (configuration not stated)	inactive	
CCn1ccnc1CN1CCCC(C(=O)c2cc(C)c(OC)c(C)c2)C1 (configuration not stated)	inconclusive: 8.2 µM [cytotoxic, partial curve]	
C=CCn1c(O)c(C(CC)=Nc2cccc(C(F)(F)F)c2)c(=O)[nH]c1=O	inconclusive: 0.0411 µM [rising, full curve]	
CN1Cc2c(c(C#N)c(N)n(C)c2=S)CC1(C)C	inconclusive: 0.651 µM [rising, full curve, poor fit]	
CCC(COC(=O)c1cc(OC)c(OC)c(OC)c1)(c1ccccc1)N(C)C (configuration not stated)	inconclusive: 11.6 µM [cytotoxic, single point] and inconclusive: 18.4 µM [cytotoxic, partial curve] and inconclusive: 14.6 µM [cytotoxic, partial curve]	
Cc1cc(NC(=O)CCl)on1	inconclusive: 29.1 µM [cytotoxic, single point]	
O=c1[nH]c(O)c(N=Nc2ccc(S(=O)(=O)N3CCOCC3)cc2)c(=O)[nH]1	inconclusive: 8.2 µM [rising, partial curve]	
Cc1ccc(-c2nc3c(=O)n(C)c(=O)nc-3n(C)n2)cc1	active: 7.31 µM	
CCC(=O)[C@@H](C)[C@@H](O)[C@H](C)C[C@@H](C)C1OC(=O)C[C@@]2(O)CC=C(C)C(O2)C(C)=CCCC[C@H](O[C@H]2C[C@@H](OC(N)=O)[C@H](O)[C@@H](C)O2)C=C[C@H](C)C[C@H]1C (some centres not stated)	inconclusive: 4.61 µM [cytotoxic, full curve, poor fit]	
CCN(CC)C(=O)c1ccc(NC(=O)COc2ccc(-c3nn(C)c(=O)c4ccccc34)cc2)cc1	inconclusive: 25.9 µM [cytotoxic, partial curve, poor fit]	
C=CCCC1(C(C)C)C(=O)NC(=S)NC1=O	inactive	
O=c1[nH]c(=S)n(Cc2ccc(F)cc2)c(O)c1C=NCC1CCCO1 (configuration not stated)	inactive	
CCN1CCN(c2cc(N3CCCC3)c([N+](=O)[O-])cc2F)CC1	inconclusive: 16.4 µM [cytotoxic, partial curve, poor fit]	
FC(F)(F)c1ccc2c(c1)ncn2C1CCN(Cc2nnnn2C2CCCCC2)CC1	active: 7.31 µM	
Cc1ccc(O)c(C(=O)c2cc(C(=O)NCCC(C)C)c(=O)n(CCC(C)C)c2)c1	inconclusive: 20.6 µM [cytotoxic, single point]	
O=C1NC(=O)N(c2ccccc2)C(=O)/C1=C\c1ccc([N+](=O)[O-])s1	inactive	
CCOC(=O)/C(=N\Nc1ccccc1)N1CC1	inactive	
CCOC(=O)c1c(C)n(Cc2ccco2)c2ccc(O)cc12	inconclusive: 20.6 µM [cytotoxic, single point]	

Structure (SMILES)	Potency	activity change, negative = cytotoxicity
CCCNC(=O)N1[C@H]2CC[C@@H]1C(C(=O)OC)=C(c1ccc(Cl)c(C(F)(F)F)c1)C2		inconclusive: -16.3%
O=C(O)c1cccc2c1NC(C(=O)O)C1CC(Sc3ccccc3[N+](=O)[O-])C(Cl)C21 (configuration not stated)	inactive	
COC(=O)C1=C(c2ccc(OC(F)(F)F)cc2)C[C@@H]2CC[C@H]1N2C(=O)NCc1cc(C)oc1C(F)(F)F	inconclusive: 29.1 µM [cytotoxic, single point]	
COC(=O)C1=C(c2ccc(-c3ccccc3)c(F)c2)C[C@@H]2CC[C@H]1N2C(=O)N1CCOCC1	inactive	
O=c1c2ccccc2nc(/C=C/c2ccc(O)c(O)c2)n1-c1ccccc1	inconclusive: 29.1 µM [cytotoxic, single point]	
O=c1c2ccccc2nc(CN2CCCCCC2)n1-c1ccc(F)cc1	inactive	
COc1cc(OC)c(OC)cc1CNCCc1ccc2c(c1)OCO2	inactive	
O=[N+]([O-])c1ccc(N2CCCC2)c2ncccc12	inconclusive: 25.9 µM [cytotoxic, partial curve, poor fit]	
Clc1ccc(C(OCCN2CCCCC2)c2ccccc2)cc1 (configuration not stated)	inconclusive: 10.3 µM [cytotoxic, partial curve]	
CCOC(=O)[C@]12Cc3cc(Cl)ccc3[C@H]1N(C1CCCCC1)C(=O)c1ccccc12	inconclusive: 2.91 µM [cytotoxic, full curve, poor fit]	
Cc1c(NP(=S)(C(C)(C)C)C(C)(C)C)c(=O)n(-c2ccccc2)n1C	inconclusive: 20.6 µM [rising, partial curve, poor fit]	
CN1C2CCC1CC(OC(c1ccccc1)c1ccccc1N)C2 (configuration not stated)	inconclusive: 6.51 µM [cytotoxic, partial curve, poor fit]	
O=C(CSC1c2ccccc2-c2ccccc21)N/N=C/c1ccccc1O	active: 5.17 µM	
CC(Cc1ccccc1)NCCC(c1ccccc1)c1ccccc1 (configuration not stated)	active: 14.6 µM	
COC(=O)c1ccccc1NC(=O)c1cccn(Cc2cccc(Cl)c2)c1=O	inconclusive: 23.1 µM [cytotoxic, single point]	
C=CCN1C(=O)NC(=O)/C(=C/c2ccc(OC)c(COc3ccc(NC(C)=O)cc3)c2)C1=O	inconclusive: 16.4 µM [cytotoxic, single point]	
ClCCN(CCCl)c1ccc(C=Nc2ccncc2)cc1	inactive	
Cc1cccc(N2C(=O)NC(=O)/C(=C\c3cnn(-c4ccccc4)c3)C2=O)c1	inconclusive: 23.1 µM [cytotoxic, single point]	
COCCCn1c(N)c(C(=O)Nc2sc3c(c2C(=O)OC)CCCC3)c2nc3ccccc3nc21	inactive	
Cc1nc2ccccc2c(=O)n1-c1cccnc1	inactive	
N#Cc1ccc(OCC(=O)N2CCN(Cc3ccc4c(c3)OCO4)CC2)cc1	inconclusive: 16.4 µM [cytotoxic, single point]	
